Measured values from the supplement of paper PMC4604168 (melanoma cell lines).
This is one part of the list. Repeats are few or missing, and single values can be far off.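 Cells were imaged in 1,536-well plates, and nuclei stained with an antibody against cleaved PARP were counted against all DNA-stained nuclei to give the apoptosis fraction. Screening doses were chosen to leave most cells alive, and resting and induced cleaved-PARP levels differ strongly between cell lines.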

Assays:
Assay in all cases: cleaved PARP positive nuclei fraction relative to DMSO control; melanoma cells; higher = more apoptosis
Settings in all cases: library dose: low library concentration; 72 h
MZ2-MEL = tested on: MZ2-MEL
MeWo = tested on: MeWo
RPMI7951 = tested on: RPMI7951
RVH-421 = tested on: RVH-421
SkMel28 = tested on: SkMel28
SkMel2 = tested on: SkMel2
SkMel30 = tested on: SkMel30
SkMel5 = tested on: SkMel5
UACC257 = tested on: UACC257
UACC62 = tested on: UACC62
WM115 = tested on: WM115
WM1716 = tested on: WM1716
WM1745 = tested on: WM1745
WM3526 = tested on: WM3526
WM3619 = tested on: WM3619
WM451Lu = tested on: WM451Lu

SMILES | cleaved PARP positive nuclei fraction (MZ2-MEL) [%] | cleaved PARP positive nuclei fraction (MeWo) [%] | cleaved PARP positive nuclei fraction (RPMI7951) [%] | cleaved PARP positive nuclei fraction (RVH-421) [%] | cleaved PARP positive nuclei fraction (SkMel28) [%] | cleaved PARP positive nuclei fraction (SkMel2) [%] | cleaved PARP positive nuclei fraction (SkMel30) [%] | cleaved PARP positive nuclei fraction (SkMel5) [%] | cleaved PARP positive nuclei fraction (UACC257) [%] | cleaved PARP positive nuclei fraction (UACC62) [%] | cleaved PARP positive nuclei fraction (WM115) [%] | cleaved PARP positive nuclei fraction (WM1716) [%] | cleaved PARP positive nuclei fraction (WM1745) [%] | cleaved PARP positive nuclei fraction (WM3526) [%] | cleaved PARP positive nuclei fraction (WM3619) [%] | cleaved PARP positive nuclei fraction (WM451Lu) [%]
CCCS(=O)(=O)Nc1ccc(F)c(C(=O)c2c[nH]c3ncc(Cl)cc23)c1F + COc1cc(Nc2ncc(F)c(Nc3ccc4c(n3)NC(=O)C(C)(C)O4)n2)cc(OC)c1OC [Tamatinib] (first compound 0.08 µM, partner dose 0.4 µM) | 175 | 230 | 187 | 96.7 | 277 | 48.4 | 178 | 68.7 | 144 | 192 | 170 | 83.9 | 131 | 188 | 95 | 118
Nc1ccn([C@@H]2O[C@H](CO)[C@@H](O)C2(F)F)c(=O)n1 [gemcitabine] + CCc1ccc(CCOc2ccc(CC3SC(=O)NC3=O)cc2)nc1 [pioglitazone] (first compound 0.0004 µM, partner dose 2 µM) | 120 | 101 | 88.7 | 72.4 | 124 | 160 | 19.1 | 72.2 | 86.1 | 416 | 211 | 213 | 114 | 137 | 96.5 | 33.4
Nc1nc(F)nc2c1ncn2[C@@H]1O[C@H](CO)[C@@H](O)[C@@H]1O [fludarabine] + O=c1cc(-c2cccc3c2Sc2ccccc2S3)oc(N2CCOCC2)c1 [KU55933] (first compound 0.2 µM, partner dose 1 µM) | 133 | 513 | 165 | 107 | 103 | 465 | 805 | 109 | 117 | 145 | 101 | 25.9 | 85 | 587 | 65.7 | 610
Nc1nc(F)nc2c1ncn2[C@@H]1O[C@H](CO)[C@@H](O)[C@@H]1O [fludarabine] + CC(C)CCN1c2nc(Nc3cc(F)c(O)c(F)c3)ncc2N(C)C(=O)C1C [BID1870] (first compound 0.2 µM, partner dose 0.2 µM) | 37.4 | 473 | 37 | 94.8 | 215 | 1220 | 392 | 371 | 105 | 126 | 155 | 101 | 106 | 380 | 93.6 | 440
O=C(O)c1ccc2c(c1)nc(Nc1cccc(Cl)c1)c1ccncc12 + Oc1nc(-c2ccc(C(F)(F)F)cc2)nc2c1CSCC2 [XAV939] (first compound 0.4 µM, partner dose 2 µM) | 138 | 158 | 167 | 73.1 | 160 | 73.7 | 702 | 96.3 | 112 | 103 | 158 | 284 | 105 | 92.2 | 85.2 | 64.6
Cc1cc(Nc2cc(N3CCN(C)CC3)nc(/C=C/c3ccccc3)n2)n[nH]1 + CC(C)CCN1c2nc(Nc3cc(F)c(O)c(F)c3)ncc2N(C)C(=O)C1C [BID1870] (first compound 0.04 µM, partner dose 0.2 µM) | 68.8 | 95.9 | 69.2 | 277 | 103 | 80.6 | 303 | 211 | 264 | 210 | 86.2 | 56.1 | 93.2 | 68.6 | 89.3 | 95.3
Nc1nc(F)nc2c1ncn2[C@@H]1O[C@H](CO)[C@@H](O)[C@@H]1O [fludarabine] + Cc1ccc(NC(=O)c2cccc(N(C)C)c2)cc1NC(=O)c1ccc(O)cc1 [ZM336372] (first compound 0.2 µM, partner dose 2 µM) | 114 | 690 | 64.7 | 63.6 | 145 | 309 | 628 | 226 | 193 | 57 | 47.3 | 100 | 91.3 | 408 | 91.4 | 250
CCCS(=O)(=O)Nc1ccc(F)c(C(=O)c2c[nH]c3ncc(Cl)cc23)c1F + COc1cc2ncnc(Nc3ccc(Oc4ccccc4)cc3)c2cc1OC [SrcI1] (first compound 0.08 µM, partner dose 2 µM) | 212 | 94.8 | 45.9 | 220 | 101 | 89 | 117 | 31.2 | 36.4 | 397 | 48.6 | 44.7 | 106 | 115 | 68.2 | 31.3
Nc1ncn([C@H]2C[C@H](O)[C@@H](CO)O2)c(=O)n1 [decitabine] + CCN(CC)CCCCNc1ncc2cc(-c3cc(OC)cc(OC)c3)c(NC(=O)NC(C)(C)C)nc2n1 [PD173074] (first compound 0.1 µM, partner dose 0.1 µM) | 134 | 85.5 | 97.8 | 113 | 105 | 113 | 169 | 78.3 | 229 | 124 | 106 | 96.6 | 84.8 | 36.1 | 89.2 | 49.5
CNC(=O)c1cc(Oc2ccc(NC(=O)Nc3ccc(Cl)c(C(F)(F)F)c3)cc2)ccn1 [sorafenib] + COc1cc(N2CCC(N3CCN(C)CC3)CC2)ccc1Nc1ncc(Cl)c(Nc2ccccc2S(=O)(=O)C(C)C)n1 [NVP-TAE684] (first compound 0.4 µM, partner dose 0.08 µM) | 27 | 146 | 24.8 | 85.6 | 115 | 119 | 80.4 | 245 | 33.7 | 107 | 63.4 | 66.1 | 98.3 | 75.7 | 105 | 40.1
Nc1nc(F)nc2c1ncn2[C@@H]1O[C@H](CO)[C@@H](O)[C@@H]1O [fludarabine] + CN(C)S(=O)(=O)c1ccc2c(c1)/C(=C/c1cc3c([nH]1)CCCC3)C(=O)N2 [SU6656] (first compound 0.2 µM, partner dose 0.4 µM) | 98.9 | 559 | 27.1 | 96.2 | 339 | 467 | 446 | 372 | 162 | 150 | 81.3 | 84 | 91.9 | 420 | 99.3 | 82.5
CC(C)C[C@H](NC(=O)[C@H](Cc1ccccc1)NC(=O)c1cnccn1)B(O)O [Bortezomib] + CO[C@@H]1[C@H](N(C)C(=O)c2ccccc2)C[C@H]2O[C@]1(C)n1c3ccccc3c3c4c(c5c6ccccc6n2c5c31)C(=O)NC4 [Midostaurin] (first compound 0.001 µM, partner dose 0.08 µM) | 210 | 103 | 82.7 | 44.5 | 52.9 | 147 | 60.7 | 97.3 | 163 | 51.2 | 83.4 | 551 | 171 | 116 | 441 | 360
O=C(O)c1ccc2c(c1)nc(Nc1cccc(Cl)c1)c1ccncc12 + CCCCCCCCCCCC1=C(O)C(=O)C=C(O)C1=O [Embelin] (first compound 0.4 µM, partner dose 1.2 µM) | 85 | 116 | 49.1 | 57 | 57.1 | 126 | 36.4 | 152 | 126 | 42.8 | 94.2 | 76.3 | 98.5 | 78.6 | 95 | 89.5
O=C(O)[C@@H]1[O][Sb](=[O])([O][Sb]2(=[O])[O][C@H]([C@H](O)CO)[C@H](O)[C@H](C(=O)O)[O]2)[O][C@H]([C@H](O)CO)[C@@H]1O (stereo partly drawn) [stibogluconate] + OCCn1cc(-c2cnc3nnn(Cc4ccc5ncccc5c4)c3n2)cn1 [PF04217903] (first compound 2 µM, partner dose 1 µM) | 60.5 | 40.3 | 67.2 | 204 | 28.5 | 81.9 | 66.8 | 42 | 56.8 | 77.4 | 196 | 102 | 96.1 | 108 | 105 | 227
Nc1ncn([C@H]2C[C@H](O)[C@@H](CO)O2)c(=O)n1 [decitabine] + COc1ccc(-c2ccc3c(N4CCOCC4)nc(N4C[C@@H](C)O[C@@H](C)C4)nc3n2)cc1CO [KU0063794] (first compound 0.1 µM, partner dose 0.02 µM) | 124 | 121 | 74.2 | 142 | 66.5 | 78.3 | 40.9 | 85.5 | 67.6 | 1070 | 114 | 33.1 | 104 | 78.6 | 103 | 273
Cn1c(=O)n(-c2ccc(C(C)(C)C#N)cc2)c2c3cc(-c4cnc5ccccc5c4)ccc3ncc21 + Oc1cc(-c2nc(-c3ccccc3)[nH]c2-c2ccncc2)ccc1Cl [L779450] (first compound 0.004 µM, partner dose 0.2 µM) | 83.7 | 307 | 150 | 129 | 118 | 102 | 56.1 | 197 | 124 | 462 | 428 | 189 | 105 | 265 | 116 | 66.9
CN1CCN(c2ccc3nc(-c4c(N)c5c(F)cccc5[nH]c4=O)[nH]c3c2)CC1 [Dovitinib] + O=C(CCCCCCC(=O)Nc1ccccc1)NO [vorinostat] (first compound 0.1 µM, partner dose 0.08 µM) | 69.2 | 161 | 45.7 | 77.4 | 88 | 95.9 | 126 | 56.4 | 56.4 | 42.7 | 92.4 | 29.8 | 96.9 | 142 | 83.2 | 88.9
CN1CCN(c2ccc3nc(-c4c(N)c5c(F)cccc5[nH]c4=O)[nH]c3c2)CC1 [Dovitinib] + N#Cc1c(O)c2c(-c3ccc(-c4ccccc4O)cc3)csc2[nH]c1=O [A769662] (first compound 0.1 µM, partner dose 2 µM) | 121 | 94 | 76.8 | 71.7 | 146 | 81 | 154 | 176 | 125 | 128 | 243 | 158 | 96.4 | 116 | 112 | 98.1

Fetched one by one from the list above (2):
SMILES | cleaved PARP positive nuclei fraction (MZ2-MEL) [%] | cleaved PARP positive nuclei fraction (MeWo) [%] | cleaved PARP positive nuclei fraction (RPMI7951) [%] | cleaved PARP positive nuclei fraction (RVH-421) [%] | cleaved PARP positive nuclei fraction (SkMel28) [%] | cleaved PARP positive nuclei fraction (SkMel2) [%] | cleaved PARP positive nuclei fraction (SkMel30) [%] | cleaved PARP positive nuclei fraction (SkMel5) [%] | cleaved PARP positive nuclei fraction (UACC257) [%] | cleaved PARP positive nuclei fraction (UACC62) [%] | cleaved PARP positive nuclei fraction (WM115) [%] | cleaved PARP positive nuclei fraction (WM1716) [%] | cleaved PARP positive nuclei fraction (WM1745) [%] | cleaved PARP positive nuclei fraction (WM3526) [%] | cleaved PARP positive nuclei fraction (WM3619) [%] | cleaved PARP positive nuclei fraction (WM451Lu) [%]
CN1CCN(c2ccc3nc(-c4c(N)c5c(F)cccc5[nH]c4=O)[nH]c3c2)CC1 [Dovitinib] + O=C(CCCCCCC(=O)Nc1ccccc1)NO [vorinostat] (first compound 0.1 µM, partner dose 0.08 µM) | 69.2 | 161 | 45.7 | 77.4 | 88 | 95.9 | 126 | 56.4 | 56.4 | 42.7 | 92.4 | 29.8 | 96.9 | 142 | 83.2 | 88.9
O=C(O)[C@@H]1[O][Sb](=[O])([O][Sb]2(=[O])[O][C@H]([C@H](O)CO)[C@H](O)[C@H](C(=O)O)[O]2)[O][C@H]([C@H](O)CO)[C@@H]1O (stereo partly drawn) [stibogluconate] + OCCn1cc(-c2cnc3nnn(Cc4ccc5ncccc5c4)c3n2)cn1 [PF04217903] (first compound 2 µM, partner dose 1 µM) | 60.5 | 40.3 | 67.2 | 204 | 28.5 | 81.9 | 66.8 | 42 | 56.8 | 77.4 | 196 | 102 | 96.1 | 108 | 105 | 227
